For 1 compound, IC50 results are on record in patent US11964974B1, “Imidazo[1,2-c]pyrido[3,4-e]pyrimidine-3-carboxylic acids as CK2 inhibitors” (KING FAISAL UNIVERSITY, priority 2024, dated 2024).

Usually IC50 stands for the concentration at which inhibition is half-maximal.

Common to all, as to assay type: cell-based
The subject of one assay is PC3 (prostate). Put plainly: In vitro cytotoxic activity assay (MTT), PC3. Conditions: Homo sapiens, Prostate cell; PC3 (prostate) cells, exposed for 96 hours; read-out: Cytotoxicity activity IC50. Here is the method:
(§1) Compounds 1-16 were screened for their in vitro cytotoxic activity utilizing a 3-(4,5-dimethyl-thiazol-2-yl)-2,5-diphenyltetrazolium bromide (MTT) assay against selected cancer human cell lines consisting of PC3 (prostate), HCT116 (colon), A375 (melanoma), H1299 (lung), MIAPaCa-2 (pancreas), HL60 (leukemia), MCF7 (breast), MDA-MB-231 (breast) (T. Mosmann, J. Immunol. Meth., 1983, 65, 55-63). The cells were cultured at 37° C. in RMPI1640 medium supplemented with 10% fetal bovine serum, 50 IU/mL penicillin, and 50 μg/mL streptomycin in a 5% CO2 incubator. All cells were sub-cultured 3 times/week by trypsinisation. Viable cells were seeded and allowed to adhere for 12 hours before a test drug was added in 96-well plates at an initial density of 1.0×10^5 cells/mL. Tumor cell lines were separately exposed to various concentrations of the tested compounds followed by incubation at a temperature of 37° C. during 96 hours inside a medium of fresh RMPI 1640. Cells were subsequently incubated at 37° C. using MTT at 0.5 mg/mL during 4 hours. After removal of supernatant, formazan crystals were dissolved in isopropanol and the optical density was measured at 570 nm. CX-4945 was used as a positive control.

A further assay relates to HCT116 (colon). Put plainly: In vitro cytotoxic activity assay (MTT), HCT116. To be noted: Homo sapiens, HCT-116; HCT116 (colon) cells, exposed for 96 hours; read-out: Cytotoxicity activity IC50. Here is the method: as §1
Another assay deals with A375 (melanoma). Put plainly: In vitro cytotoxic activity assay (MTT), A375. Conditions: Homo sapiens, A-375; A375 (melanoma) cells, exposed for 96 hours; read-out: Cytotoxicity activity IC50. Here is the method: as §1
The test system of another assay is H1299 (lung). Put plainly: In vitro cytotoxic activity assay (MTT), H1299. Conditions: Homo sapiens, NCI-H1299; H1299 (lung) cells, exposed for 96 hours; read-out: Cytotoxicity activity IC50. Here is the method: as §1
Another assay deals with MIAPaCa-2 (pancreas). As to the kind of experiment: In vitro cytotoxic activity assay (MTT), MIAPaCa-2. Conditions: Homo sapiens, MIA PaCa-2; MIAPaCa-2 (pancreas) cells, exposed for 96 hours; read-out: Cytotoxicity activity IC50. As to the method: as §1
The test system of a further assay is HL60 (leukemia). Put plainly: In vitro cytotoxic activity assay (MTT), HL60. Conditions: Homo sapiens, HL-60; HL60 (leukemia) cells, exposed for 96 hours; read-out: Cytotoxicity activity IC50. Here is the method:
as §1

For a further assay, the system named is MCF7 (breast). As to the kind of experiment: In vitro cytotoxic activity assay (MTT), MCF7. Conditions: Homo sapiens; MCF7 (breast) cells, exposed for 96 hours; read-out: Cytotoxicity activity IC50. Here is the method:
as §1

The next assay relates to MDA-MB-231 (breast). As to the kind of experiment: In vitro cytotoxic activity assay (MTT), MDA-MB-231. Conditions: Homo sapiens; MDA-MB-231 (breast) cells, exposed for 96 hours; read-out: Cytotoxicity activity IC50. Here is the method:
as §1

For the compound `O=C(O)c1ccc2c(c1)nc(Nc1cccc(Cl)c1)c1ccncc12` [CX-4945, reference compound], the IC50 in the assay with PC3 (prostate) came to 2000 nM; with HCT116 (colon) it was 2300 nM; in the assay with A375 (melanoma), 4100 nM; in the assay on H1299 (lung), 2300 nM; in the assay on MIAPaCa-2 (pancreas), 1000 nM; in the assay on HL60 (leukemia) it was 3700 nM. For the same compound, the IC50 in the assay with MCF7 (breast) is 9100 nM; with MDA-MB-231 (breast) it was 6200 nM.
